In the supplement of paper PMC4604168 (melanoma cell lines):
The other results are listed elsewhere or left out. Single values are uncertain, as repeats are few or missing.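 Imaging used 1,536-well plates; nuclei positive for cleaved PARP by antibody were divided by total DNA-stained nuclei to yield the apoptosis fraction. Doses for screening kept most cells viable, and cell lines differ markedly in resting and induced cleaved-PARP levels.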

Experiments:
Test in all cases: cleaved PARP positive nuclei fraction relative to DMSO control; melanoma cells; higher = more apoptosis
Settings in all cases: library dose: low library concentration; 72 h
CBRC034 = tested on: CBRC034 (line from a melanoma biopsy)
COLO792 = tested on: COLO792
COLO800 = tested on: COLO800
COLO829 = tested on: COLO829
G361 = tested on: G361
IPC-298 = tested on: IPC-298
IST-MEL1 = tested on: IST-MEL1
LB2518-MEL = tested on: LB2518-MEL
LOXIMVI = tested on: LOXIMVI

SMILES | cleaved PARP positive nuclei fraction (CBRC034) [%] | cleaved PARP positive nuclei fraction (COLO792) [%] | cleaved PARP positive nuclei fraction (COLO800) [%] | cleaved PARP positive nuclei fraction (COLO829) [%] | cleaved PARP positive nuclei fraction (G361) [%] | cleaved PARP positive nuclei fraction (IPC-298) [%] | cleaved PARP positive nuclei fraction (IST-MEL1) [%] | cleaved PARP positive nuclei fraction (LB2518-MEL) [%] | cleaved PARP positive nuclei fraction (LOXIMVI) [%]
CCc1ccc(CCOc2ccc(CC3SC(=O)NC3=O)cc2)nc1 (centres undefined) [pioglitazone] + COc1ccc(-c2ccc3c(N4CCOCC4)nc(N4C[C@@H](C)O[C@@H](C)C4)nc3n2)cc1CO [KU0063794] (first compound 2 µM, partner dose 0.02 µM) | 371 | 77.6 | 58.7 | 94.2 | 103 | 227 | 85 | 40.5 | 33.6
COc1cc2c(Oc3ccc4[nH]c(C)cc4c3F)ncnc2cc1OCCCN1CCCC1 [cediranib] + COc1cc2ncnc(Nc3ccc(Oc4ccccc4)cc3)c2cc1OC [SrcI1] (first compound 0.4 µM, partner dose 2 µM) | 156 | 206 | 154 | 114 | 101 | 71.8 | 260 | 86.9 | 92.6
O=C(Nc1ccccc1)c1cc([N+](=O)[O-])ccc1Cl + COc1cc(N2CCC(N3CCN(C)CC3)CC2)ccc1Nc1ncc(Cl)c(Nc2ccccc2S(=O)(=O)C(C)C)n1 [NVP-TAE684] (first compound 2 µM, partner dose 0.08 µM) | 41.5 | 76.7 | 79.8 | 87 | 51.6 | 56.6 | 58.9 | 112 | 34.1
O=S(=O)(c1ccccc1)N(CC(F)(F)F)c1ccc(C(O)(C(F)(F)F)C(F)(F)F)cc1 + Cc1cc([N+](=O)[O-])ccc1NS(=O)(=O)c1cc(Cl)ccc1Cl [FH535] (first compound 1.4 µM, partner dose 1 µM) | 247 | 115 | 72.5 | 85.3 | 95.6 | 39.1 | 68 | 201 | 62.9
N#Cc1c(O)c2c(-c3ccc(-c4ccccc4O)cc3)csc2[nH]c1=O + COc1cc2ncnc(Nc3ccc(Oc4ccccc4)cc3)c2cc1OC [SrcI1] (first compound 2 µM, partner dose 2 µM) | 81.3 | 71 | 29.1 | 84.4 | 201 | 60 | 94.3 | 146 | 31.1
Oc1cc(-c2nc(-c3ccccc3)[nH]c2-c2ccncc2)ccc1Cl + Oc1nc(-c2ccc(C(F)(F)F)cc2)nc2c1CSCC2 [XAV939] (first compound 0.2 µM, partner dose 2 µM) | 284 | 72.6 | 159 | 106 | 121 | 61.9 | 49.9 | 92.4 | 48.5
COc1ccc2c(c1)CCC1C2CCC2(C)C(NCCCCCCN3C(=O)C=CC3=O)CCC12 (centres undefined) + Cn1cc(/C=C2\C(=O)Nc3cccnc32)c2ccccc21 [GW441756] (first compound 0.4 µM, partner dose 0.4 µM) | 47.7 | 93.8 | 70.7 | 82.9 | 86.3 | 54.2 | 71.6 | 85.3 | 135
N#Cc1c(O)c2c(-c3ccc(-c4ccccc4O)cc3)csc2[nH]c1=O + COc1ccc(COc2ccc(Cc3cnc(N)nc3N)cc2OC)cc1 [GW2580] (first compound 2 µM, partner dose 1 µM) | 37.9 | 88.9 | 128 | 137 | 145 | 91.9 | 354 | 234 | 61.5
O=C(O)C(=O)Nc1sc2c(c1C(=O)O)CCNC2 + CCCCCCCCCCCC1=C(O)C(=O)C=C(O)C1=O [Embelin] (first compound 1.66667 µM, partner dose 1.2 µM) | 83.5 | 99.6 | 90.2 | 95.1 | 58.6 | 106 | 52.4 | 159 | 36.3
O=C(O)c1ccc(-c2c[nH]c3ncc(-c4ccccc4)cc23)cc1C1CCCC1 + O=c1cc(-c2cccc3c2Sc2ccccc2S3)oc(N2CCOCC2)c1 [KU55933] (first compound 0.16 µM, partner dose 1 µM) | 26.3 | 58.7 | 165 | 125 | 116 | 84.8 | 178 | 157 | 30.2
COc1cc(N2CCC(N3CCN(C)CC3)CC2)ccc1Nc1ncc(Cl)c(Nc2ccccc2S(=O)(=O)C(C)C)n1 + CCCCCCCCCCCC1=C(O)C(=O)C=C(O)C1=O [Embelin] (first compound 0.08 µM, partner dose 1.2 µM) | 186 | 241 | 20.6 | 77.7 | 72.9 | 153 | 132 | 76.5 | 27.1
CCN(CC)CCCCNc1ncc2cc(-c3cc(OC)cc(OC)c3)c(NC(=O)NC(C)(C)C)nc2n1 + Cc1cc([N+](=O)[O-])ccc1NS(=O)(=O)c1cc(Cl)ccc1Cl [FH535] (first compound 0.1 µM, partner dose 1 µM) | 811 | 123 | 67.6 | 104 | 99.9 | 117 | 95.5 | 111 | 71.9
COc1cc2c(Oc3ccc4[nH]c(C)cc4c3F)ncnc2cc1OCCCN1CCCC1 [cediranib] + Oc1nc(-c2ccc(C(F)(F)F)cc2)nc2c1CSCC2 [XAV939] (first compound 0.4 µM, partner dose 2 µM) | 84.5 | 295 | 109 | 122 | 57.1 | 76.7 | 56.1 | 78.7 | 33.1
CN(C)S(=O)(=O)c1ccc2c(c1)/C(=C/c1cc3c([nH]1)CCCC3)C(=O)N2 + COc1ccc2c(c1)CCC1C2CCC2(C)C(NCCCCCCN3C(=O)C=CC3=O)CCC12 [U73122] (first compound 0.4 µM, partner dose 0.4 µM) | 92.6 | 77.8 | 88.5 | 64.9 | 150 | 125 | 86.8 | 236 | 50
COc1ccc(COc2ccc(Cc3cnc(N)nc3N)cc2OC)cc1 + Cn1cc(/C=C2\C(=O)Nc3cccnc32)c2ccccc21 [GW441756] (first compound 1 µM, partner dose 0.4 µM) | 79.7 | 179 | 37.2 | 176 | 94.2 | 124 | 112 | 73.1 | 28
COc1ccc(-c2ccc3c(N4CCOCC4)nc(N4C[C@@H](C)O[C@@H](C)C4)nc3n2)cc1CO + CCN(CC)CCCCNc1ncc2cc(-c3cc(OC)cc(OC)c3)c(NC(=O)NC(C)(C)C)nc2n1 [PD173074] (first compound 0.02 µM, partner dose 0.1 µM) | 86.8 | 138 | 141 | 163 | 99 | 183 | 34.7 | 139 | 23.3
CN(C)S(=O)(=O)c1ccc2c(c1)/C(=C/c1cc3c([nH]1)CCCC3)C(=O)N2 + CCN(CC)CCCCNc1ncc2cc(-c3cc(OC)cc(OC)c3)c(NC(=O)NC(C)(C)C)nc2n1 [PD173074] (first compound 0.4 µM, partner dose 0.1 µM) | 183 | 72.3 | 92.1 | 67.7 | 77.8 | 28 | 92.1 | 184 | 35.8
CN(NC(=O)CC(=O)NN(C)C(=S)c1ccccc1)C(=S)c1ccccc1 + Oc1cc(-c2nc(-c3ccccc3)[nH]c2-c2ccncc2)ccc1Cl [L779450] (first compound 0.006 µM, partner dose 0.2 µM) | 164 | 162 | 49.9 | 153 | 114 | 195 | 49.2 | 215 | 65.4
COC(=O)c1sccc1S(=O)(=O)Nc1ccc(Nc2ccccc2)cc1OC + CC(C)CCN1c2nc(Nc3cc(F)c(O)c(F)c3)ncc2N(C)C(=O)C1C [BID1870] (first compound 1 µM, partner dose 0.2 µM) | 126 | 95.9 | 73.5 | 121 | 203 | 184 | 488 | 83.4 | 58
COc1ccc2c(c1)CCC1C2CCC2(C)C(NCCCCCCN3C(=O)C=CC3=O)CCC12 (centres undefined) + Cc1cc([N+](=O)[O-])ccc1NS(=O)(=O)c1cc(Cl)ccc1Cl [FH535] (first compound 0.4 µM, partner dose 1 µM) | 270 | 162 | 52.8 | 135 | 203 | 86.7 | 89.4 | 79 | 166
COc1cc2c(Oc3ccc4[nH]c(C)cc4c3F)ncnc2cc1OCCCN1CCCC1 [cediranib] + COc1cc(N2CCC(N3CCN(C)CC3)CC2)ccc1Nc1ncc(Cl)c(Nc2ccccc2S(=O)(=O)C(C)C)n1 [NVP-TAE684] (first compound 0.4 µM, partner dose 0.08 µM) | 87.4 | 164 | 205 | 44.5 | 106 | 55.8 | 191 | 166 | 132

As entered above:
Oc1cc(-c2nc(-c3ccccc3)[nH]c2-c2ccncc2)ccc1Cl + Oc1nc(-c2ccc(C(F)(F)F)cc2)nc2c1CSCC2 [XAV939] (first compound 0.2 µM, partner dose 2 µM) – cleaved PARP positive nuclei fraction (CBRC034) [%]: 284
COc1ccc(COc2ccc(Cc3cnc(N)nc3N)cc2OC)cc1 + Cn1cc(/C=C2\C(=O)Nc3cccnc32)c2ccccc21 [GW441756] (first compound 1 µM, partner dose 0.4 µM) – cleaved PARP positive nuclei fraction (COLO792) [%]: 179
